Values of other authors, collected in patent publication US8883203B2, “Solid oral dosage form containing an enhancer” (Merrion Research III Limited, priority 2006, dated 2014).

Conditions: in vivo; cited from earlier work

**Q.** For `NCCCC(O)(P(=O)(O)O)P(=O)(O)O` [alendronate, Alendronate monosodium trihydrate], which “impairment of absorption by coffee or orange juice” value is on record?
**A.** The value was no less than 60%.
